Data on 13 compounds can be found in US20250276924A1, “CHEMICAL AND BIOLOGICAL DEGRADATION OF ETHER PER- AND POLYFLUOROALKYL SUBSTANCES” (The Regents of the University of California, priority 2024, published 2025).

Counter-ions that a name gives are not always drawn. Some compounds share one wording; it may come from a single statement.

Data set [1] deals with activated sludge community. Briefly: Aerobic biotransformation and defluorination of ether PFAS in activated sludge batch reactors. To be noted: for parent compound removal / TFA formed from the compound / removal of compound: aerobic incubation; for aerobic biotransformation / defluorination: incubation ≤28 days, result in words.
Data set [2] deals with activated sludge community. Briefly: Aerobic biological post-treatment of UV/sulfite effluent with activated sludge. Particulars: for biotransformation of chemical treatment products: activated sludge, result in words.
The nature of data set [3]: Internal recycle between the chemical and biological units. To be noted: effluent of the biological unit returned to the chemical unit, result in words.

Take `O=C(O)COC(F)(F)F` [E1, 2-(trifluoromethoxy)acetic acid]: in data set [1] (activated sludge), the parent compound removal amounted to 40.9%, the aerobic biotransformation entry is given as “aerobic biotransformation was observed” and the defluorination entry is recorded as “defluorination was observed”.
In the case of `O=C(O)C(F)OC(F)(F)F` (stereo not drawn) [E2, 2-fluoro-2-(trifluoromethoxy)acetic acid], in data set [1] (activated sludge), the aerobic biotransformation entry is “did not exhibit notable parent compound decay” and the defluorination result is “did not exhibit notable parent compound decay or defluorination”.
In the case of `O=C(O)COC(F)(F)C(F)(F)F` [E7, 2-(perfluoroethoxy)acetic acid], in data set [1] (activated sludge), the “TFA formed from the compound” value was 37.2 µM, the removal of compound was found to be 37.9 µM and the defluorination result is recorded as “defluorination was observed”. In data set [1] (activated sludge, end of incubation), the “fluorine ions at the end of the incubation” value is “approximately 67 μM”.
As for `O=C(O)C(F)(F)C(F)(F)C(F)(F)OC(F)(F)F` [E9, 2,2,3,3,4,4-hexafluoro-4-(trifluoromethoxy)butanoic acid], in data set [1] (activated sludge), the aerobic biotransformation entry is “did not show any biotransformation”.
Consider `O=C(O)C(F)(OC(F)(F)C(F)(F)C(F)(F)F)C(F)(F)F` (stereo not drawn) [E10, 2,3,3,3-tetrafluoro-2-(perfluoropropoxy)propanoic acid], for which the “additional defluorination / increase in total defluorination by aerobic biological post-treatment” value in data set [2] (time not stated) is given as “about 20%”. Also, the aerobic biotransformation result in data set [1] (activated sludge) is listed as “did not show any biotransformation”.
On to `O=C(O)CCC(F)(OC(F)(F)F)C(F)(F)F` (stereo not drawn) [E11, 4,5,5,5-tetrafluoro-4-(trifluoromethoxy)pentanoic acid], for which, in data set [1] (activated sludge), the parent compound removal stood at 8%; the aerobic biotransformation result is recorded as “exhibited biotransformation”; the defluorination result was “exhibited biotransformation and defluorination”.
For `O=C(O)/C=C/C(F)(OC(F)(F)F)C(F)(F)F` (stereo not drawn) [E12, 4,5,5,5-tetrafluoro-4-(trifluoromethoxy)pent-2-enoic acid], the “fluoride formed, assigned to one pathway” value in data set [1] (E12: conversion into TFA, TP273: further transformation of TP273) is 8 µM. In data set [1] (activated sludge), the “amount hydrated at the C═C bond forming TP273” value stood at 9 µM, the “amount that underwent two defluorinating pathways” value worked out at 11 µM, the “fluorine ions released per molecule of removed compound” value is “up to four” and the “TFA formed from the compound” value was “about 2 μM”. In data set [1] (activated sludge), the parent compound removal is listed as 80%; the removal of compound worked out at 37 µM; the aerobic biotransformation result is recorded as “exhibited biotransformation”; the defluorination result was “exhibited biotransformation and defluorination”. Also, the “amount of removed compound that underwent hydrogenation forming E11” value in data set [1] (within a week) was “about 26 μM”.
With `O=C(O)CC(F)(C(F)(F)F)C(F)(F)F` [FTMePA, (CF3)2CFCH2COOH, reference compound], in data set [1] (activated sludge), the aerobic biotransformation entry is given as “resistant to biotransformation” and the defluorination entry is given as “did not exhibit any defluorination”.
For `O=C(O)C=CC(F)(C(F)(F)F)C(F)(F)F` [FTMeUPA, (CF3)2CFCH═CHCOOH, reference compound], in data set [1] (activated sludge), the aerobic biotransformation result is listed as “underwent only hydrogenation” and the defluorination result is on record as “did not exhibit any defluorination”.
With `O=C(O)C(F)(F)F` [TP142, trifluoroacetate], in data set [2], the “biotransformation of chemical treatment products” value was “nondefluorinating biotransformation”.
`O=C(O)C(F)C(F)(F)F` (stereo not drawn) [TP144, 2,3,3,3-tetrafluoropropanoic acid]: the “fate during an internal recycle” value in data set [3] was “converted and mineralized”.
For `O=C(O)C(F)(F)C(F)(F)F` [TP162, 2,2,3,3,3-pentafluoropropanoic acid], the “fate during an internal recycle” value in data set [3] is “converted and mineralized”.
For sulfonated trifluoropropionate [TP206], the “biotransformation of chemical treatment products” value in data set [2] is “nondefluorinating biotransformation”.
